# Reference: article PMC5964149
# Protein sequences, listed by entry. Tags and fused reporters are not part of them.
# UniProt P35222: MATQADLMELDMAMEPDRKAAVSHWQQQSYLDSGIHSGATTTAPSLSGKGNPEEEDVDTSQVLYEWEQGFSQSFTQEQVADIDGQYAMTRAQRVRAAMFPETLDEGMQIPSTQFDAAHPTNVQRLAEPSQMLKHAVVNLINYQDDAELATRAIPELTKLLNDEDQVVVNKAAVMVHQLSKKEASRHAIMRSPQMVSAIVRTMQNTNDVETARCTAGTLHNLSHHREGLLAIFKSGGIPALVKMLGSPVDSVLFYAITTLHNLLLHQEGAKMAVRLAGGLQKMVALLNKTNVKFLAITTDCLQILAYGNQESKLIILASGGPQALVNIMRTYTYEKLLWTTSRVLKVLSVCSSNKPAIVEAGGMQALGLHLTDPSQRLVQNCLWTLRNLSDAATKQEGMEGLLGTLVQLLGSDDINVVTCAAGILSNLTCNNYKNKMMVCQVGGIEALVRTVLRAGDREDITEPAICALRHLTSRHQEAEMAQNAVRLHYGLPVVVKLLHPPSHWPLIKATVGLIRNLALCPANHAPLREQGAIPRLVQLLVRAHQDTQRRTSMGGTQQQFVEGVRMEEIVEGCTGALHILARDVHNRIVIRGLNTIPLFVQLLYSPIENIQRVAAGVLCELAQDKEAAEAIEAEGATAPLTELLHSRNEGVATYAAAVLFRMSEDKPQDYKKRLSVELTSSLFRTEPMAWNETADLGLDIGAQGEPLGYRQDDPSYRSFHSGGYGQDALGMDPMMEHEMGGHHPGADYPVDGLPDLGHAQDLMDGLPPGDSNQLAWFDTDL
# UniProt O15169: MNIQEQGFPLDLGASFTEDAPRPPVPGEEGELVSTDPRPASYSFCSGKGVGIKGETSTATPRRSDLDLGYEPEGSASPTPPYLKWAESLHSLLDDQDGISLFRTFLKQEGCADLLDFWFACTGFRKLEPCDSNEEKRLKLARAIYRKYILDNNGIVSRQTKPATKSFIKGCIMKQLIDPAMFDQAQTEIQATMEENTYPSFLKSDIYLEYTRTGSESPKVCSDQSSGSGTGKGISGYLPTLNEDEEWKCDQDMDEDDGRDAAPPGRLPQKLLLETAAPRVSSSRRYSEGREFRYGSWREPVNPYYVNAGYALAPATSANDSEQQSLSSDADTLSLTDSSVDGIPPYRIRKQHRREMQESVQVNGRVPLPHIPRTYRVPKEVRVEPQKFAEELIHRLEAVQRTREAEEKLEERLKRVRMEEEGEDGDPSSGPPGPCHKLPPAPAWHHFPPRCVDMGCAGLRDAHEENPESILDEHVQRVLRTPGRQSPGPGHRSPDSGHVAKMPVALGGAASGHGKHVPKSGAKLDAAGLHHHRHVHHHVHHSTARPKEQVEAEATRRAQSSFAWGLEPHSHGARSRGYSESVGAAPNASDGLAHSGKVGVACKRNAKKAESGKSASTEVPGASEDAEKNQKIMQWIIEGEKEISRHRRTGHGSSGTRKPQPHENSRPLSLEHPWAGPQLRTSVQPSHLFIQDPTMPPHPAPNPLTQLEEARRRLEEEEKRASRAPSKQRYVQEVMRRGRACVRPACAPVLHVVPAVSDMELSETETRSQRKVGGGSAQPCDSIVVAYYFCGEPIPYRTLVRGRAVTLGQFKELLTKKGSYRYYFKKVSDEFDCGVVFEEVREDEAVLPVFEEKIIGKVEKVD
# These are yes or no findings as the source states them, for the method shown. In cells and extracts the contact can be indirect. Some results given as binding are weak or reduced against the parent protein; the word gives no strength.
# Experiments:
# [1] = target: β-catenin (human (endogenous in HEK293T and SW480)) (UniProt P35222); experiment: co-IP; endogenous proteins; SW480 cells with or without 4 μM PF (some panels with 10 μM MG132 or YAP siRNA); lysates immunoprecipitated with β-catenin, β-TrCP, YAP or Axin1 antibody, protein A/G beads, immunoblot
# [2] = target: β-catenin (human (endogenous in HEK293T and SW480)) (UniProt P35222); experiment: co-IP; endogenous proteins; HEK293T cells treated with 4 μM PF for 12 h, then with or without 10 μM MG132 for 8 h; β-catenin immunoprecipitated with a β-catenin antibody, protein A/G beads, immunoblot
substance,measurement,setting,value
Axin1 (from UniProt O15169 1-862),binding,[1],binds
same,binding,[2],binds
